The data set concerns MDA-MB-231 cells. The data set can be described thus: Fluorescence microscopy with MitoTracker red, MDA-MB-231. Format: cell-based. Particulars: 30 μM, 1 h.

One compound from publication PMC6481325, “Novel N,N-dialkyl cyanocinnamic acids as monocarboxylate transporter 1 and 4 inhibitors” (Oncotarget, 2019) can be followed below.

SMILES strings stand for the structures.

`COc1cc(N(c2ccccc2)c2ccccc2)ccc1/C=C(\C#N)C(=O)O` [Phenyl (9)]: the “cellular uptake (fluorescence microscopy)” value is listed as “internalized” and the “intracellular localization (fluorescence microscopy, MitoTracker red)” value is given as “concentrated in areas near mitochondria, but did not appear to co-localize with most mitochondria”.
